Data source: PubChem BioAssay AID504791 (Drosophila RNAi Screening Center, 2011)
The screen tested about 23,000 reagents; shown is an unselected part of those that have a named target and a result. Over the whole deposit, 199 (0.86%) were called active. 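Plate-scaled ratios behind the calls are not deposited; printed light signals are raw; many rows marked increased or decreased are still called inactive.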 A plus sign joins genes that one reagent is predicted to hit. Not given: the direction of the score.

- Assay: 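Genes whose knock-down strengthens or weakens small-RNA reporter silencing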 (primary screen)
- System: Drosophila S2-derived reporter cells
- Reagents: long dsRNA against Drosophila genes, about 150-250 ng dsRNA per well (siRNA assay); about 80-120 ng (miRNA assay)
- Duration: about 5 days (siRNA assay); about 4 days (miRNA assay)
- Treatment: copper sulfate induction of reporters: 25 µM (siRNA assay); 200 mM stated (miRNA assay), 1-2 days before reading
- Measured: 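Dual luciferase assay: Renilla to firefly signal ratio in each well, scaled to the mean ratio of its plate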
- Active means: 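First-pass picks had plate-scaled ratios over 1.5 for the siRNA assay, over 1.6 for the miRNA assay, or under 0.6; two distinct dsRNAs had to score alike on retest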

target	DRSC id	stable siRNA reporter change	miRNA reporter change	stable assay Renilla, run 1 (luminescence)	stable assay firefly, run 1 (luminescence)	outcome
TTLL15	DRSC15543			7047	3.40e5	inactive
Art3	DRSC16065			8051	4.34e5	inactive
CG14341	DRSC00371	reporter ratio lowered past the hit cutoff		5186	4.90e5	inactive
cdm	DRSC16213			6734	3.75e5	inactive
CG33758	DRSC05158			5939	5.10e5	inactive
CG5815	DRSC14135			6563	4.11e5	inactive
geminin	DRSC04984			4592	2.61e5	inactive
ham	DRSC02070			5794	3.28e5	inactive
ham	DRSC02512			4663	3.90e5	inactive
ham	DRSC02513			6183	3.39e5	inactive
Rassf	DRSC15612			8894	3.03e5	inactive
Rassf	DRSC28891		reporter ratio raised past the hit cutoff			inactive
CG15403	DRSC00417			7003	4.27e5	inactive
fsd	DRSC06166			7076	3.83e5	inactive
RpL28 + snoRNA:Or-CD12	DRSC08293			5214	2.57e5	inactive
rdhB	DRSC16190			10475	3.90e5	inactive
CCAP	DRSC15674			7631	4.61e5	inactive
CG7276	DRSC10797			7794	3.50e5	inactive
CG3036	DRSC00260			4459	4.23e5	inactive
CG3036	DRSC00562			9919	4.20e5	inactive
Acsf2	DRSC02172			9827	4.77e5	inactive
CR33294	DRSC22950			4128	3.84e5	inactive
sing	DRSC19530			6191	5.33e5	inactive
CG1246	DRSC08275			6666	3.55e5	inactive
CG15483	DRSC02493			7670	4.08e5	inactive
Mayo	DRSC14300			6367	4.07e5	inactive
ArgRS	DRSC20138			6271	4.50e5	inactive
IscU	DRSC16572			7074	5.03e5	inactive
Elp4	DRSC02999			5219	2.96e5	inactive
Hsp83	DRSC08664	reporter ratio lowered past the hit cutoff		6662	8.75e5	inactive
Syx4	DRSC18586			7312	4.06e5	inactive
sut4	DRSC07703			8047	4.09e5	inactive
AcCoAS	DRSC11477			5363	3.55e5	inactive
AcCoAS	DRSC11603			8126	4.18e5	inactive
AcCoAS	DRSC22850			4327	4.98e5	inactive
Cyt-c1L	DRSC14860			6207	5.47e5	inactive
Cyt-c1L	DRSC22096			9223	5.13e5	inactive
CG6933	DRSC10751			8811	3.73e5	inactive
Set	DRSC16861			9314	5.06e5	inactive
ninaG	DRSC16102			7415	4.51e5	inactive
GC1	DRSC15322			5978	3.83e5	inactive
Gycbeta100B	DRSC14039			6435	2.55e5	inactive
Gycbeta100B	DRSC14040			8115	3.48e5	inactive
Gycbeta100B	DRSC16691			7680	5.75e5	inactive
CG14718	DRSC14941			8299	5.47e5	inactive
CPT2	DRSC08553			12147	5.70e5	inactive
CG14589	DRSC04866			6867	4.47e5	inactive
Jhbp15	DRSC15217			6507	2.94e5	inactive
TBC1D23	DRSC00657			8202	4.31e5	inactive
CG31871	DRSC02567			7655	5.15e5	inactive
CG31871	DRSC02571			6816	4.26e5	inactive
Mulk	DRSC02658			8371	1.01e6	inactive
CG15423	DRSC00437			6722	3.15e5	inactive
CG6497	DRSC10654			7582	4.39e5	inactive
CG6497	DRSC21469			9153	7.43e5	inactive
eIF3k	DRSC04056		reporter ratio lowered past the hit cutoff	14398	5.36e5	inactive
CG14073	DRSC10078			6627	4.14e5	inactive

Part of the list above, reformatted.
{"target": "CG14341", "DRSC id": "DRSC00371", "stable siRNA reporter change": "reporter ratio lowered past the hit cutoff", "stable assay Renilla, run 1 (luminescence)": 5186, "stable assay firefly, run 1 (luminescence)": 4.90e5, "outcome": "inactive"}
{"target": "cdm", "DRSC id": "DRSC16213", "stable assay Renilla, run 1 (luminescence)": 6734, "stable assay firefly, run 1 (luminescence)": 3.75e5, "outcome": "inactive"}
{"target": "CG33758", "DRSC id": "DRSC05158", "stable assay Renilla, run 1 (luminescence)": 5939, "stable assay firefly, run 1 (luminescence)": 5.10e5, "outcome": "inactive"}
{"target": "CG5815", "DRSC id": "DRSC14135", "stable assay Renilla, run 1 (luminescence)": 6563, "stable assay firefly, run 1 (luminescence)": 4.11e5, "outcome": "inactive"}
{"target": "geminin", "DRSC id": "DRSC04984", "stable assay Renilla, run 1 (luminescence)": 4592, "stable assay firefly, run 1 (luminescence)": 2.61e5, "outcome": "inactive"}
